Reference: US20150148256A1, “BIOLUMINESCENCE IMAGING-BASED SCREENING ASSAY AND INHIBITORS OF ABCG2” (THE JOHNS HOPKINS UNIVERSITY, priority 2008, published 2015)

Target: T1, ABCG2 (Homo sapiens, UniProt Q9UNQ0)
T1 sequence (Q9UNQ0 1-655): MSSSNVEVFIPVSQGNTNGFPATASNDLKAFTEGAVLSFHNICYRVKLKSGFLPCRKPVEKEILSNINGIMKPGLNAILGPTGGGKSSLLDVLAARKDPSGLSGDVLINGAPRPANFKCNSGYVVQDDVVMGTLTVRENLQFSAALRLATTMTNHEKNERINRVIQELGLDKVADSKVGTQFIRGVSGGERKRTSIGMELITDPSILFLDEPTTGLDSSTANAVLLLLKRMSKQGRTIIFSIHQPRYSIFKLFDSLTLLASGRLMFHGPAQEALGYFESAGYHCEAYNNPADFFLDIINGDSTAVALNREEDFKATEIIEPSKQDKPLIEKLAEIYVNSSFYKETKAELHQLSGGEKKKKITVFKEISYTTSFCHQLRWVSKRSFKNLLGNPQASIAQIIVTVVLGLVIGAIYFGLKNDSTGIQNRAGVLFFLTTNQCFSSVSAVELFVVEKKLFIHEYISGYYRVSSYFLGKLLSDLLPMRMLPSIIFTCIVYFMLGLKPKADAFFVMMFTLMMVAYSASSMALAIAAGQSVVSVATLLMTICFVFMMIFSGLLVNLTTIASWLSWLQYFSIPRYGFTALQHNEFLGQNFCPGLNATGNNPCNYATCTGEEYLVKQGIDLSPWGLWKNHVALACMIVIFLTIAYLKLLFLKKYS
Conditions: 40 min, 17 μM
Description: HEK293/ABCG2/fLuc cells were plated into 96-well plates at a density of 4×10^4 cells/100 μL per well and were allowed to attach overnight. The following day, 10 μL of each compound or the control solvent was transferred from a compound library in a 96-well, high-throughput format into the wells using a multichannel pipette. […] Images were taken every 5 minutes for ˜1 h. Light output from each well was quantified at the 40 min time point after initiation of imaging, and the signal-to-background (S/B) ratio of the light output from each compound divided by that from the control well was calculated. This S/B ratio serves as an indicator of the potency of ABCG2 inhibition, the mechanism by which BLI signal is enhanced.
Images were taken every 5 min for ˜1 h, and light output from each well at the 40 min time point was chosen for quantification. The SB ratio of the light output from each compound divided by that from the control well was calculated. This ratio was used as an indicator of the potency of ABCG2 inhibition, the mechanism by which BLI signal is enhanced.
The BLI signal-enhancing effect of selected ABCG2 inhibitors was evaluated within the range of 0.001 μM-100 μM, with HEK293/ABCG2/fLuc cells and 50 μg/mL D-luciferin. The data obtained at 40 min after imaging commencement were chosen arbitrarily to be plotted (FIG. 3).

## CCCNCC(O)COc1ccccc1C(=O)CCc1ccccc1 (stereo not shown) [propafenone]
  Fold (BLI enhancement, S/B ratio over control): 2.4 fold
